# Measured values published in PMC7819943, “Rice protein-binding microarrays: a tool to detect cis-acting elements near promoter regions in rice”.
# Sequences of proteins named here, by UniProt entry; tags and fusion partners are left off.
# UniProt Q0JBA9, entry or part of it: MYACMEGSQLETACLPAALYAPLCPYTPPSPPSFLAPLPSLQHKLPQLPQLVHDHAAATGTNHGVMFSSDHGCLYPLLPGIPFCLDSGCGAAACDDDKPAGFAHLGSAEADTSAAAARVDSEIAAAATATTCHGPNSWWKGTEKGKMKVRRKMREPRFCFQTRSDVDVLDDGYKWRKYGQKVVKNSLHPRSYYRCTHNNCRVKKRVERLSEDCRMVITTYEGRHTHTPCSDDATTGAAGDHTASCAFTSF
# The other results are listed elsewhere or left out.
# Target: OsWRKY34 (Oryza sativa, UniProt Q0JBA9 1-250)
# Experiment: protein-binding microarray (RPBM); PBS, 2% BSA, 51.3 ng/ul salmon testes DNA, 50 uM zinc acetate, 200 nM TF, 25 C, 1 h; high values mean tight binding
# Settings: protein: recombinant; tags: N-terminal polyhistidine and DsRed monomer fusion (pET32a); label: CyDye5-dUTP incorporated in the synthesized complementary strand; 3' TTTTT single-stranded linker to array surface; dsDNA, one strand shown
# Summary of the method: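 In PBS with 2% BSA, salmon testes DNA and 50 µM zinc acetate, 200 nM protein was incubated on a custom Agilent array at 25 °C for 1 h and then washed off. The array had been made double-stranded by primer extension with Cy5-dUTP and blocked with 2% BSA. The proteins were transcription factors fused N-terminally to polyhistidine and DsRed, expressed in E. coli BL21-CodonPlus and purified on Ni–NTA. The binding signal is per-feature fluorescence intensity (arbitrary units) from an Axon 4000B scanner.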
row,Sequence,binding signal
1,ACCAATTTCCAGTTAACCGCCGTCTGAATTCATTTATCCACGGAGTCACCTAGTGCAG,9670 fluorescence intensity (a.u.)
2,GAGATCCTTCGCTGTCACTGTATCATGTCCTAAATGAGTCCGGAGTCACCTAGTGCAG,9020 fluorescence intensity (a.u.)
3,TCCTTGCTCGCGAATCCACTCGCGCGTGCGTGGGCCCCACCGGAGTCACCTAGTGCAG,8380 fluorescence intensity (a.u.)
4,CTCACCATCGCCGGCCGTCGACCCAATCCCAGCGACCATGCGGAGTCACCTAGTGCAG,10300 fluorescence intensity (a.u.)
5,CTAATCATTTCACACTAGTTTTCTTTCTTTCTCCTACATGCGGAGTCACCTAGTGCAG,8620 fluorescence intensity (a.u.)
6,TTAGACCACCCTAATTTTCTTTTCTAGTTGTATCTATCTTCGGAGTCACCTAGTGCAG,8920 fluorescence intensity (a.u.)
7,AGCTTTATTCCTCGAGGCCCATTAGTCCCTTCGTTTCCATCGGAGTCACCTAGTGCAG,8210 fluorescence intensity (a.u.)
8,GTCCTACTTGTTATACACACCCTGCGTCTTGAAGTCCGTACGGAGTCACCTAGTGCAG,10100 fluorescence intensity (a.u.)
9,AGACTATCATCTTGAGCTTATTCTTCCATTTGCTCCATCTCGGAGTCACCTAGTGCAG,8950 fluorescence intensity (a.u.)
10,AGAACTTTTCCAGGTAGTTGCACCGGTGCTCCAGTTTGAACGGAGTCACCTAGTGCAG,8110 fluorescence intensity (a.u.)
11,TATTTTCATTTACACAACAGCTAACTTTACATTTCAATTTCGGAGTCACCTAGTGCAG,9310 fluorescence intensity (a.u.)
12,CTTCTCTTCATTCATGTAACATGCACTTTCACTCGTACTGCGGAGTCACCTAGTGCAG,10600 fluorescence intensity (a.u.)
13,CCGCTGAGCCTGAGTCTCCTGGTCCACGTACACCCGTGGACGGAGTCACCTAGTGCAG,8690 fluorescence intensity (a.u.)
14,TCCCACCTTGCGCATCTCACCACCCTTACCTTGGCCTCCTCGGAGTCACCTAGTGCAG,8540 fluorescence intensity (a.u.)
15,TTATGTTAACCTCGTACTACAAGTTTTCTCCTTATAAAAACGGAGTCACCTAGTGCAG,9820 fluorescence intensity (a.u.)
16,GGTCGTGTCATGTCGTTCTTGTTTTACTTCCTGTGAAGTTCGGAGTCACCTAGTGCAG,14800 fluorescence intensity (a.u.)
17,GCTATCATTTATAGATTTAACCACGGTTTCTTTGTCTTTGCGGAGTCACCTAGTGCAG,9070 fluorescence intensity (a.u.)
18,GAATCCTTTTATCCACGCTCTCTACACATTTTTTTTGACGCGGAGTCACCTAGTGCAG,11000 fluorescence intensity (a.u.)
19,TTTTTATGGCCTTGTTACCCTCTTGTATAGCCCGTCCATACGGAGTCACCTAGTGCAG,9120 fluorescence intensity (a.u.)
20,CCATTACCAGAACAGAACAGCAGGTTTTAACCTAACATTCCGGAGTCACCTAGTGCAG,8110 fluorescence intensity (a.u.)
21,AATCATCCGAATCGAATCGCCCACTTCTCCTCTCGATCCGCGGAGTCACCTAGTGCAG,11500 fluorescence intensity (a.u.)

row,Sequence,binding signal
1,AATTTTCTCCTTTTATCTCCTCTCAAGCATATAACACAATCGGAGTCACCTAGTGCAG,8480 fluorescence intensity (a.u.)
2,ATCCATCTTAATTCGCTTCTACATTGGGGCGCTTGTTAATCGGAGTCACCTAGTGCAG,13200 fluorescence intensity (a.u.)
3,ACACGTGCATGTCTTCTTATCCATCTCTATCCATCTGCATCGGAGTCACCTAGTGCAG,9580 fluorescence intensity (a.u.)
4,CCGCGCTTCCATCTCCGGCGGTCCGGTCTATCCTCTCCGCCGGAGTCACCTAGTGCAG,10000 fluorescence intensity (a.u.)
5,TCACACTCACATAGCTATATTTTTTATATTATGGACATCACGGAGTCACCTAGTGCAG,8260 fluorescence intensity (a.u.)
6,AAAACTTCGACCTGCTCTACTCCCTTTTTGAGTGAAACCACGGAGTCACCTAGTGCAG,8610 fluorescence intensity (a.u.)
7,CGTACCGTTGCACCACCACCACCACCCGCAACTCGCAACGCGGAGTCACCTAGTGCAG,9770 fluorescence intensity (a.u.)
8,GCTTCGTTGGCTCCGTGAAACTGTCTCTCTCTCCCAACTCCGGAGTCACCTAGTGCAG,8030 fluorescence intensity (a.u.)
9,TGTTCCAATCCCATCCATTCCATTCCATTCCTTCTCCCTGCGGAGTCACCTAGTGCAG,10900 fluorescence intensity (a.u.)
10,TATTGCCTTGTTTTTCTTTTTTTTCCCCTCTCTTTTTCTACGGAGTCACCTAGTGCAG,9270 fluorescence intensity (a.u.)
11,CTCTCTCTCCACGCAGAATGCTGCTTTCCCGTTATTTTCTCGGAGTCACCTAGTGCAG,11200 fluorescence intensity (a.u.)
12,GTTCCGGAAGGTGTGGAGTCTCGGTGCCCTCGTCGCTCGCCGGAGTCACCTAGTGCAG,8180 fluorescence intensity (a.u.)
13,CAAATCAGTGCTGCTGGTTACGGATAAGCCTCTCTTTTCCCGGAGTCACCTAGTGCAG,11800 fluorescence intensity (a.u.)
14,TCTTGTTTAGATCCTGTCCGTTGCCTTTTCTCTTTTCCATCGGAGTCACCTAGTGCAG,8780 fluorescence intensity (a.u.)
15,GATGGGCGGGCTAGGGTTTGGGATTAGGCAACCAGCTGTGCGGAGTCACCTAGTGCAG,9070 fluorescence intensity (a.u.)
16,ACCGCGTGCATGTTTCTGAACCGTTAAACGGTGTATATATCGGAGTCACCTAGTGCAG,8800 fluorescence intensity (a.u.)
17,CGGGAGGGGAGGGGAATGGATGTGGGGAGGAGAGAGACTGCGGAGTCACCTAGTGCAG,12600 fluorescence intensity (a.u.)
18,CGCGCGCCGTCGCCGCCGCCGCCGCCTCCGCCTCCGCCTCCGGAGTCACCTAGTGCAG,8860 fluorescence intensity (a.u.)
19,GGCTTTTATGGGGCGGGCTTTCTTTGGTCAATGGTCACTACGGAGTCACCTAGTGCAG,32200 fluorescence intensity (a.u.)
20,CAGTTCACTGCTGTCTCTAGCTCGTACCGGCTCAGTTCATCGGAGTCACCTAGTGCAG,10800 fluorescence intensity (a.u.)
21,GTATGGGTTGCGAGTGATTTATTATACCTTCTTGGTGAGACGGAGTCACCTAGTGCAG,9750 fluorescence intensity (a.u.)

# Two entries drawn at random from those above, as already listed:
row,Sequence,binding signal
21,GTATGGGTTGCGAGTGATTTATTATACCTTCTTGGTGAGACGGAGTCACCTAGTGCAG,9750 fluorescence intensity (a.u.)
17,GCTATCATTTATAGATTTAACCACGGTTTCTTTGTCTTTGCGGAGTCACCTAGTGCAG,9070 fluorescence intensity (a.u.)
